Experimental data as given in article PMC11461529.

Legend:
[1] = molecular target: T1, katanin-like 2 (KL2) (mouse (endogenous in mouse oocytes)) (UniProt Q9D3R6); assay: affinity purification with mass spectrometry; preliminary LC-MS of what KL2 pulled down; lysate not stated
T1 sequence: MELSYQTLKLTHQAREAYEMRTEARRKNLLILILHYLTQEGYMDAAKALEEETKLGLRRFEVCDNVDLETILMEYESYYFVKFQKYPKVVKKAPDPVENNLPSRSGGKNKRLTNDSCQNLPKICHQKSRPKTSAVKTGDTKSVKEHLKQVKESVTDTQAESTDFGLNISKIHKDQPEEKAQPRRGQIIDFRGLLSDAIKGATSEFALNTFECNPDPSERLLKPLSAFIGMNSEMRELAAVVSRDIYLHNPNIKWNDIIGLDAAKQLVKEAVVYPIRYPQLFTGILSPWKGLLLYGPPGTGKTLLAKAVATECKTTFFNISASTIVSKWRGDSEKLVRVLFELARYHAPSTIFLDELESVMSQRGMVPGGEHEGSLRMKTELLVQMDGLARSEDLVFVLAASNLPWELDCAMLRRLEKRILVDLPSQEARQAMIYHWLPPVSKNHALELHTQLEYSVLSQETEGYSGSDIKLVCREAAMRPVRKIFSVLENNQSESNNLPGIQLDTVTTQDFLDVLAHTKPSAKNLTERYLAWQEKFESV

[2] = molecular target: T1, katanin-like 2 (KL2) (mouse (endogenous in mouse oocytes)); assay: affinity purification with mass spectrometry; anti-KL2 antibody or control IgG on protein A/G agarose beads, mouse oocyte lysate, overnight 4 C, IP buffer (20 mmol/L Tris-HCl pH 8.0, 150 mmol/L NaCl, 10 mmol/L EDTA, 1 mmol/L EGTA, 0.05% Triton X-100, 0.05% NP-40); SDS-PAGE, silver staining, bands distinct from control IgG identified by MALDI-TOF-MS

binding [1]: binds
Molecule: histone 1 (H1) (mouse (endogenous in mouse cells))

binding [1]: binds
Molecule: histone H2 (mouse (endogenous in mouse cells))

binding [2]: binds
B1: eukaryotic elongation factor-2 kinase (eEF2K) (enzyme, UniProt O08796 1-724)
chain: MADEDLIFCLEGVDGGRCSRAGHNADSDTDSDDDEGYFICPITDDHMSNQNVSSKVQSYYSNLTKTECGSTGSPASSFHFKEAWKHAIEKAKHMPDPWAEFHLEDIATEHATRHRYNAVTGEWLKDEVLIKMASQPFGRGAMRECFRTKKLSNFLHAQQWKGASNYVAKRYIEPVDRSVYFEDVQLQMEAKLWGEDYNRHKPPKQVDIMQMCIIELKDRPGQPLFHLEHYIEGKYIKYNSNSGFVRDDNIRLTPQAFSHFTFERSGHQLIVVDIQGVGDLYTDPQIHTEKGTDFGDGNLGVRGMALFFYSHACNRICQSMGLTPFDLSPREQDAVNQSTRLLQSAKTILRGTEEKCGSPRIRTLSSSRPPLLLRLSENSGDENMSDVTFDSLPSSPSSATPHSQKLDHLHWPVFGDLDNMGPRDHDRMDNHRDSENSGDSGYPSEKRSDLDDPEPREHGHSNGNRRHESDEDSLGSSGRVCVETWNLLNPSRLHLPRPSAVALEVQRLNALDLGRKIGKSVLGKVHLAMVRYHEGGRFCEKDEEWDRESAIFHLEHAADLGELEAIVGLGLMYSQLPHHILADVSLKETEENKTKGFDYLLKAAEAGDRHSMILVARAFDTGLNLSPDRCQDWSEALHWYNTALETTDCDEGGEYDGIQDEPQYALLAREAEMLLTGGFGLDKNPQRSGDLYTQAAEAAMEAMKGRLANQYYEKAEEAWAQMEE

These are yes or no findings as the source states them, for the method shown. Binding seen in cells or lysates may run through a third protein. These calls come from enrichment with a bait or labelling near it, and not all partners need be listed. One block for each molecule: values may come before it.
